# In PubChem BioAssay AID1259415 (National Center for Advancing Translational Sciences (NCATS), 2018):
# Values joined by “and” are separate entries in the source; they are usually repeats but may differ in a detail not shown here. Equal values may be shown once. In all, about 410,000 compounds went through this assay and about 18,000 (4.4%) were called active. The inconclusive results got no clear call from the source; some entries with a clear call stand among them for comparison. Rule as the data show it: active = activity change below about -60%; inconclusive = no clear call, values can overlap the other calls; inactive = above about -39%.
# Test: qHTS Assay for inhibitors of the human cytomegalovirus (HCMV)
# Conditions: HFF cells, HCMV-luciferase reporter, 72 h; at 57.5 µM; hits give low values
# In short: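 Inhibition of viral replication was scored as loss of reporter luminescence in HFFs infected with HCMV-luciferase (MOI 1 PFU/cell) for 72 h; compounds tested at 2 doses, normalized to buffer and Salinomycin controls.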
# % is scaled to controls: 0 for no effect and ±100 for the full control effect.
row,Compound,"activity change, negative = inhibition"
1,Cc1cccc(C(=O)N2CC3(C)CC2CC(C)(C)C3)c1 (stereo not given),inconclusive: -52.7%
2,CC(=O)c1cccc(CN2CCC(n3nccc3NC(=O)c3ccc4c(c3)OCO4)CC2)c1,inconclusive: -56.5%
3,Cc1ccc(S(=O)(=O)NN=Cc2ccco2)cc1,inactive: -29.6%
4,COc1cc(CNCCN2CCOCC2)ccc1OCc1ccc(Cl)cc1Cl,active: -84.9%
5,COCCSc1nc2c([nH]c3ccccc32)c(=O)n1-c1ccc(OC)c(OC)c1,inactive: 2.86%
6,COC(=O)/C(C#N)=C/c1c(N2CCCCCC2)nc2ccccn2c1=O,inconclusive: -44.8%
7,O=C(Nc1nc(-c2ccc(F)c(F)c2)cs1)Nc1ccc(F)cc1F,inconclusive: -51.5%
8,Cc1ccccc1-n1c(/C=C/c2ccc(N(C)C)cc2)nc2ccccc2c1=O,active: -82.2%
9,Cc1cccc(N(CC(=O)NC(C)(C)C)C(=O)CNC(=O)c2cccs2)c1C,inconclusive: -42.8%
10,COc1ccc(NC(=S)N2CCN(Cc3ccccc3)CC2)c(OC)c1,inconclusive: -48%
11,C/C(CC(=O)Nc1cccc(F)c1)=N\NC(=O)C(=O)NC1CCCCC1,inconclusive: -47.4%
12,O=C1NC2(CCCCC2)N(C(=O)c2ccccc2)C2=C1CCCC2,inconclusive: -44%
13,Cc1cccc(C)c1OCC(O)CNS(=O)(=O)c1ccccc1C(=O)N1CCCCC1 (stereo not given),inconclusive: -43.9%
14,CCCNC(=O)CS(=O)Cc1nc(-c2ccc(OC)cc2)oc1C (stereo not given),inconclusive: -50.4%
15,OCC1CCN(Cc2nc(Cc3ccccc3Cl)no2)CC1,inactive: -3.15%
16,Cc1ccc(CNS(=O)(=O)c2ccc(C(=O)N(C)C)s2)cc1,inactive: 1.6%
17,CCc1nc2ccccc2c(C(=O)OCC(=O)NCc2ccco2)c1C,inactive: -9.23%
18,COc1ccc(/C=C2\SC(=S)N(CCC(=O)N3CCCCC3CCO)C2=O)cc1 (stereo not given),active: -84%
19,O=C(/C=C/c1ccc2c(c1)OCO2)Nc1nncs1,inactive: 77.1%
20,CC(C)c1ccc(C2NCc3ccccc3-n3cccc32)cc1 (stereo not given),inconclusive: -59.7%
21,C/C(=N\NC(=O)CNc1ccccc1)c1ccccc1,inconclusive: -53%
22,C=CCSc1nnc(COc2ccc(=O)n(-c3ccccc3)n2)n1CC,active: -93.1%
23,Cc1cc(C(=O)N/N=C/C=C/c2ccc(Br)cc2)n[nH]1,inconclusive: -55.5%
24,Cc1cc(C)cc(NC(=O)Cn2cc(C(=O)c3cccs3)c3ccccc32)c1,inconclusive: -43.4%
25,CCC(C)NC(=O)Cn1c(=O)n(CCCC(=O)NCc2ccccc2Cl)c(=O)c2ccccc21 (stereo not given),inconclusive: -50.2%
26,CCc1ccc(NC(=O)C(C)OC(=O)c2ccc(N3CCCC3)c([N+](=O)[O-])c2)cc1 (stereo not given),inconclusive: -57.1%
27,CCc1ccc(NC(=O)c2ccc3c(c2)C(=O)N(CCOC)C3Nc2ccc(CC)cc2)cc1 (stereo not given),active: -89.9%
28,O=C(CSc1nc(-c2ccccc2)cs1)N1CCN(C(=O)c2ccco2)CC1,active: -103%

row,Compound,"activity change, negative = inhibition"
1,Cc1cccnc1NC(=O)Cn1nc([N+](=O)[O-])cc1C,inconclusive: -44.1%
2,O=C(NCCc1ccccc1)C1CCCN(S(=O)(=O)c2cccs2)C1 (stereo not given),inconclusive: -47.4%
3,COc1nnc(-c2ccc(C)cc2)c2ccccc12,inconclusive: -57.7%
4,COc1cc(NC(=O)c2ccc([N+](=O)[O-])cc2)ccc1NC(=O)C(C)C,inconclusive: -42.8%
5,CC(=O)O[C@]1(C(C)=O)CC[C@H]2[C@@H]3C[C@H](C)C4=CC(=O)CC[C@]4(C)[C@H]3CC[C@@]21C,inactive: 19.7% and inactive: 56.1%
6,C=CCN1C(=O)NC(c2ccccc2)(C(F)(F)F)S/C1=C(\C#N)c1nnc(N2CCOCC2)n1-c1ccccc1 (stereo not given),inactive: -24.8%
7,COc1ccc(NC(=O)C2CCC2)cc1S(=O)(=O)N1CCOCC1,inactive: 41.6%
8,O=C(c1ccc2c(c1)CCN2S(=O)(=O)c1ccc(Cl)cc1)N1CCN(c2ccc(F)cc2)CC1,inconclusive: -42.1%
9,CCOc1ccc(NC(=O)NCc2cccn2Cc2ccccc2)cc1,inactive: -18.1%
10,CCOC(=O)N1CCN(c2ccc(S(=O)(=O)N(Cc3ccccc3)Cc3ccccc3)cn2)CC1,active: -90.3%
11,CN(C)CCCN(C(=O)CCc1ccccc1)c1nc2ccc(Cl)cc2s1,inconclusive: -53.2%
12,COc1ccc(N2CCN(C(=O)c3cc(N4C(=O)C5C6CCC(C6)C5C4=O)ccc3Cl)CC2)cc1 (stereo not given),inactive: -36%
13,CC1=CC(c2ccccc2)n2ncnc2N1 (stereo not given),inconclusive: -47.1%
14,COc1cc(OC)cc(C(=O)N[C@H](C(=O)NCc2ccc(F)cc2)C(C)C)c1,inactive: 9.15%
15,C=CCn1cc(C(=O)c2cc(Br)ccc2O)cc(C#N)c1=O,inconclusive: -46.2%
16,COC(=O)c1ccc(OS(=O)(=O)c2ccc(NC(C)=O)cc2)cc1,inconclusive: -49.4%
17,O=C(c1cccc(C(F)(F)F)c1)C1CCCN(Cc2cccn2-c2ccccn2)C1 (stereo not given),inconclusive: -43.9%
18,COc1ccc2nc(C)cc(SCC(=O)NNC(=O)COc3ccccc3)c2c1,inconclusive: -45.2%
19,Cc1ccc(Sc2ncccc2C(=O)O)cc1C,active: -67%
20,Cc1cc(C)c(NC(=O)Cn2nnc(S(=O)(=O)c3ccc(C)c(C)c3)c2N)c(C)c1,inconclusive: -53.8%
21,O=C(CN1CC=C(c2ccccc2)CC1)NC(=O)NC1CCCCC1,inconclusive: -41%
22,CCN(CC)C(=O)c1ccc(S(=O)(=O)N2CCC(c3nc4ccccc4s3)CC2)cc1,active: -96.2%
23,COc1ccc(-n2cc(CNCC3CCOCC3)c(-c3cccc(F)c3)n2)cc1,active: -88.8%
24,Cc1ccccc1Cn1c(=O)n(CCCC(=O)NCc2ccco2)c(=O)c2sccc21,inconclusive: -47.3%
25,Cc1cccc(N2CCn3c2nc2c3c(=O)n(C/C=C/c3ccccc3)c(=O)n2C)c1,inactive: -29.8%
26,Cc1ccc(/C=C2/Sc3ccc(C(=O)N4CCN(C)CC4)cc3NC2=O)cc1,inconclusive: -52.6%
27,Cc1ccc(NC(=O)CSc2ccc(-c3cccnc3)nn2)cc1Cl,inconclusive: -49.2%

# Look-ups from the results shown:
# activity change, negative = inhibition with Cc1ccccc1Cn1c(=O)n(CCCC(=O)NCc2ccco2)c(=O)c2sccc21 reads inconclusive: -47.3%
# activity change, negative = inhibition with O=C(NCCc1ccccc1)C1CCCN(S(=O)(=O)c2cccs2)C1 (stereo not given) reads inconclusive: -47.4%
# activity change, negative = inhibition with COc1ccc(N2CCN(C(=O)c3cc(N4C(=O)C5C6CCC(C6)C5C4=O)ccc3Cl)CC2)cc1 (stereo not given) reads inactive: -36%
